Data set [1] has as its target Sp1 (nuclear extract) (Homo sapiens) (UniProt P08047). In words: competition with a labelled probe. The settings on record: 100-fold excess against Sp1-1, ARS and Sp1-3 probes; EMSA: 10 ug nuclear extract or 120 nM Sp1, 20 fmol biotin probe; binding buffer per earlier paper (not given); 6% native PAGE, 0.5x TBE pH 8.3; protein in an extract; label: unlabelled. (In general: Mobility shift assays separate free from complexed probe on a gel.)

In data set [2] the target is hnRNP-K (nuclear extract) (Homo sapiens) (UniProt P61978). In words: EMSA, complex impeded by anti-hnRNP-K. As to conditions: EMSA: 10 ug nuclear extract or 120 nM Sp1, 20 fmol biotin probe; binding buffer per earlier paper (not given); 6% native PAGE, 0.5x TBE pH 8.3; protein in an extract; label: 3' biotin; single-stranded DNA.
In data set [3] the target is Sp1 (nuclear extract) (Homo sapiens) (UniProt P08047). In words: EMSA, complex diminished by anti-Sp1. As to conditions: apparent lower affinity than Sp1-1; EMSA: 10 ug nuclear extract or 120 nM Sp1, 20 fmol biotin probe; binding buffer per earlier paper (not given); 6% native PAGE, 0.5x TBE pH 8.3; protein in an extract; label: 3' biotin.
For data set [4] the target is unchanged. In words: EMSA supershift. The settings on record: EMSA: 10 ug nuclear extract or 120 nM Sp1, 20 fmol biotin probe; binding buffer per earlier paper (not given); 6% native PAGE, 0.5x TBE pH 8.3; protein in an extract; label: 3' biotin.

The exact form of at least one protein or probe is not confirmed. At least one result comes from cells or an extract, where the contact may be indirect. For part of these data: The comparison behind a weaker result is the experiment's own reference, which may not be listed here.

“ATTCGATCGGGGCGGGGCGAGC (double strand) [Sp1 cons]”: the binding result in data set [1] is “binds”.

For “TCTCCACCCCGCCTCCCCCCACCCTGCCTT [ARS forward strand (C-rich)]”, in data set [2], the binding result is recorded as “binds”.

Consider “TTCTCCCCACCCGCCCCCCCGCCCCCGTCG (double strand) [Sp1-3]”, for which the binding result in data set [3] is recorded as “binds more weakly”.

“TTCTCCCCACCCGCCCCCCCGCCCCCGTCG [Sp1-3 forward strand (C-rich)]”: the binding result in data set [2] was “binds”.

Take “CGGCCCGGTGGGGGCGGGACCCGACTCGCA (double strand) [Sp1-1]”: the binding result in data set [4] is recorded as “binds”.

Take “TCTCCACCCCGCCTCCCCCCACCCTGCCTT (double strand) [ARS]”: the binding result in data set [3] was “binds more weakly”.

These data come from article PMC4598089.
